According to paper PMC11091072, “Targeting bacterial nickel transport with aspergillomarasmine A suppresses virulence-associated Ni-dependent enzymes” (Nature Communications, 2024):
Peptide text beside a SMILES is read from it. * marks the point of attachment. Cbz = O=C(OCc1ccccc1)*

System: HEK293 cells
Test: HEK293 cytotoxicity assay (Cell Titer Glo 2.0)
Conditions: 48 h

| SMILES | Hill slope (HEK293 viability) |
| --- | --- |
| N[C@@H](CN[C@@H](CN[C@@H](CC(=O)O)C(=O)O)C(=O)O)C(=O)O.[Zn+2] [Zn-AMA] | -21.52 |
| N[C@@H](CN[C@@H](CN[C@@H](CC(=O)O)C(=O)O)C(=O)O)C(=O)O.[Co+2] [Co-AMA] | -1.413 |
| CC(C)C[C@@H](C=O)NC(=O)[C@H](CC(C)C)NC(=O)[C@H](CC(C)C)NC(=O)OCc1ccccc1 [MG132, reference compound] (Cbz-Leu-Leu-Leu-aldehyde) | -1.290 |
